From patent US20160145222A1, “Methods for Controlling Pests in Soybean” (BASF SE, priority 2013, published 2016)
Some results were stated once for a whole list of compounds, not compound by compound.

Test system: Nezara viridula
Test: Green Soldier Stink Bug (Nezara viridula) spray test on soybean pods
Assay type: in vivo
Conditions: sprayed, late 3rd instar N. viridula, after 5 days

| Structure (SMILES) | mortality in comparison with untreated controls (100 ppm) | mortality in comparison with untreated controls (500 ppm) |
| --- | --- | --- |
| COc1cc(C2=NSC(c3cc(Cl)c(Cl)c(Cl)c3)(C(F)(F)F)C2)ccc1CNC(=O)CS(C)(=O)=O (stereo not shown) [Compound 3-32] | over 75% | over 75% |
| CC(C)C(=O)NCc1ccc(C2=NSC(c3cc(Cl)c(F)c(Cl)c3)(C(F)(F)F)C2)cc1Cl (stereo not shown) [Compound 3-129] | over 75% | over 75% |
| Cc1cc(C2=NSC(c3cc(Cl)c(F)c(Cl)c3)(C(F)(F)F)C2)ccc1C=NNC(=O)NCC(F)(F)F (stereo not shown) [Compound 1-25] | – | over 75% |
| CS(=O)(=O)CC(=O)NCc1ccc(C2=NSC(c3cc(Br)cc(C(F)(F)F)c3)(C(F)(F)F)C2)cc1F (stereo not shown) [Compound 3-144] | over 75% | over 75% |
| CCC(=O)NCc1ccc(C2=NSC(c3cc(Cl)cc(C(F)(F)F)c3)(C(F)(F)F)C2)cc1Cl (stereo not shown) [Compound 3-159] | over 75% | over 75% |
| Cc1cc(C2=NSC(c3cc(Cl)cc(Cl)c3)(C(F)(F)F)C2)ccc1C(=O)NCCS(=O)(=O)CC1CC1 (stereo not shown) [Compound 2-44] | – | over 75% |
| CCCC(=O)NCc1ccc(C2=NSC(c3cc(Br)cc(C(F)(F)F)c3)(C(F)(F)F)C2)cc1F (stereo not shown) [Compound 3-147] | over 75% | over 75% |
| O=C(CC(=O)NC1CC1)NCc1ccc(C2=NSC(c3cc(Cl)c(F)c(Cl)c3)(C(F)(F)F)C2)cc1Cl (stereo not shown) [Compound 3-51] | – | over 75% |
| CCC(C)C(=O)NCc1ccc(C2=NSC(c3cc(Cl)c(F)c(Cl)c3)(C(F)(F)F)C2)cc1Cl (stereo not shown) [Compound 3-78] | over 75% | over 75% |
| O=C(NCc1ccc(C2=NSC(c3cc(C(F)(F)F)cc(C(F)(F)F)c3)(C(F)(F)F)C2)cc1Cl)C1CC1 (stereo not shown) [Compound 3-105] | over 75% | over 75% |
| COc1cc(C2=NSC(c3cc(Cl)c(Cl)c(Cl)c3)(C(F)(F)F)C2)ccc1C=NNC(=O)NCC(F)(F)F (stereo not shown) [Compound 1-9] | – | over 75% |
| Cc1cc(C2=NSC(c3cc(Cl)c(Cl)c(Cl)c3)(C(F)(F)F)C2)ccc1C=NNC(=O)NCC(F)F (stereo not shown) [Compound 1-23] | – | over 75% |
| CCN(Cc1ccc(C2=NSC(c3cc(Cl)cc(Cl)c3)(C(F)(F)F)C2)cc1Cl)C(=O)CSC(F)(F)F (stereo not shown) [Compound 3-9] | – | over 75% |
| O=C(CSC(F)(F)F)NCc1ccc(C2=NSC(c3cc(Cl)c(F)c(Cl)c3)(C(F)(F)F)C2)cc1Cl (stereo not shown) [Compound 3-136] | – | over 75% |
| CS(=O)(=O)CC(=O)NCc1ccc(C2=NSC(c3cc(Cl)c(F)c(Cl)c3)(C(F)(F)F)C2)cc1Cl (stereo not shown) [Compound 3-15] | – | over 75% |
| C=CCS(=O)(=O)CCNC(=O)c1ccc(C2=NSC(c3cc(Cl)cc(Cl)c3)(C(F)(F)F)C2)cc1C (racemic) [Compound 2-67] | – | over 75% |
| Cc1cc(C2=NSC(c3cc(Cl)c(F)c(Cl)c3)(C(F)(F)F)C2)ccc1C=NNC(=O)NCC(F)F (stereo not shown) [Compound 1-26] | – | over 75% |
| O=C(CC(F)(F)F)NCc1ccc(C2=NSC(c3cc(Cl)cc(Cl)c3)(C(F)(F)F)C2)cc1Cl (stereo not shown) [Compound 3-12] | over 75% | over 75% |
| O=C(CC(=O)NCC(F)(F)F)NCc1ccc(C2=NSC(c3cc(Cl)c(F)c(Cl)c3)(C(F)(F)F)C2)cc1Cl (stereo not shown) [Compound 3-70] | – | over 75% |
| O=C(CC(F)(F)F)NCc1ccc(C2=NSC(c3cc(Cl)cc(Br)c3)(C(F)(F)F)C2)cc1Cl (stereo not shown) [Compound 3-122] | over 75% | over 75% |
| CS(=O)(=O)CC(=O)NCc1ccc(C2=NSC(c3cc(Cl)c(Cl)c(Cl)c3)(C(F)(F)F)C2)cc1F (stereo not shown) [Compound 3-25] | over 75% | over 75% |
| CC(=O)NCc1ccc(C2=NSC(c3cc(Cl)cc(C(F)(F)F)c3)(C(F)(F)F)C2)cc1Cl (stereo not shown) [Compound 3-162] | over 75% | over 75% |
| CS(=O)(=O)CC(=O)NCc1ccc(C2=NSC(c3cc(Cl)cc(Br)c3)(C(F)(F)F)C2)cc1Cl (stereo not shown) [Compound 3-125] | – | over 75% |
| O=C(NCc1ccc(C2=NSC(c3cc(Br)cc(C(F)(F)F)c3)(C(F)(F)F)C2)cc1F)C1CC1 (stereo not shown) [Compound 3-146] | over 75% | over 75% |
| N#CC1(NC(=O)c2ccc(C3=NSC(c4cc(Cl)cc(Br)c4)(C(F)(F)F)C3)cc2Cl)CC1 (racemic) [Compound 2-73] | – | over 75% |
| CCN(Cc1ccc(C2=NSC(c3cc(Cl)cc(Cl)c3)(C(F)(F)F)C2)cc1Cl)C(=O)CS(C)(=O)=O (stereo not shown) [Compound 3-7] | over 75% | over 75% |

| Structure (SMILES) | mortality in comparison with untreated controls (100 ppm) | mortality in comparison with untreated controls (500 ppm) |
| --- | --- | --- |
| CCC(=O)NCc1ccc(C2=NSC(c3cc(Cl)cc(Cl)c3)(C(F)(F)F)C2)cc1Cl (stereo not shown) [Compound 3-10] | over 75% | over 75% |
| O=C(CC(F)(F)F)NCc1ccc(C2=NSC(c3cc(Cl)cc(C(F)(F)F)c3)(C(F)(F)F)C2)cc1Cl (stereo not shown) [Compound 3-165] | over 75% | over 75% |
| CNC(=O)NN=Cc1ccc(C2=NSC(c3cc(Cl)c(Cl)c(Cl)c3)(C(F)(F)F)C2)cc1SC (stereo not shown) [Compound 1-11] | over 75% | over 75% |
| CCC(=O)N(CC)Cc1ccc(C2=NSC(c3cc(Cl)cc(Cl)c3)(C(F)(F)F)C2)cc1Cl (stereo not shown) [Compound 3-6] | over 75% | over 75% |
| O=C(NCc1ccc(C2=NSC(c3cc(Cl)c(F)c(Cl)c3)(C(F)(F)F)C2)cc1Cl)C1(F)CCC1 (stereo not shown) [Compound 3-48] | – | over 75% |
| O=C(NCc1ccc(C2=NSC(c3cc(Cl)c(F)c(Cl)c3)(C(F)(F)F)C2)cc1Cl)C1CS(=O)(=O)C1 (stereo not shown) [Compound 3-20] | – | over 75% |
| CCC(=O)NCc1ccc(C2=NSC(c3cc(Cl)c(Cl)c(Cl)c3)(C(F)(F)F)C2)cc1SC (stereo not shown) [Compound 3-37] | over 75% | over 75% |
| C#CCOCCNC(=O)c1ccc(C2=NSC(c3cc(Cl)cc(Cl)c3)(C(F)(F)F)C2)cc1C (racemic) [Compound 2-69] | – | over 75% |
| CCC(=O)NCc1ccc(C2=NSC(c3cc(C(F)(F)F)cc(C(F)(F)F)c3)(C(F)(F)F)C2)cc1Cl (stereo not shown) [Compound 3-103] | over 75% | over 75% |
| O=C(NCc1ccc(C2=NSC(c3cc(Cl)c(F)c(Cl)c3)(C(F)(F)F)C2)cc1Cl)C1CC1(Cl)Cl (stereo not shown) [Compound 3-23] | – | over 75% |
| O=C(NCC(F)F)NN=Cc1ccc(C2=NSC(c3cc(Cl)cc(Cl)c3)(C(F)(F)F)C2)cc1Cl (stereo not shown) [Compound 1-4] | – | over 75% |
| CSc1cc(C2=NSC(c3cc(Cl)c(Cl)c(Cl)c3)(C(F)(F)F)C2)ccc1CNC(=O)CC(F)(F)F (stereo not shown) [Compound 3-34] | over 75% | over 75% |
| N#CC1(CNC(=O)CNC(=O)c2ccc(C3=NSC(c4cc(Cl)c(F)c(Cl)c4)(C(F)(F)F)C3)cc2Cl)CC1 (stereo not shown) [Compound 2-88] | over 75% | over 75% |
| O=C(CC(=O)NCC(F)F)NCc1ccc(C2=NSC(c3cc(Cl)c(F)c(Cl)c3)(C(F)(F)F)C2)cc1Cl (stereo not shown) [Compound 3-45] | – | over 75% |
| CS(=O)(=O)CC(=O)NCc1ccc(C2=NSC(c3cc(Cl)c(F)c(Cl)c3)(C(F)(F)F)C2)cc1F (stereo not shown) [Compound 3-153] | – | over 75% |
| O=C(NCc1ccc(C2=NSC(c3cc(Cl)c(F)c(Cl)c3)(C(F)(F)F)C2)cc1Cl)c1ccccn1 (stereo not shown) [Compound 3-21] | – | over 75% |
| O=C(CC1COC1)NCc1ccc(C2=NSC(c3cc(Cl)c(F)c(Cl)c3)(C(F)(F)F)C2)cc1Cl (stereo not shown) [Compound 3-140] | – | over 75% |
| CC(=O)NCc1ccc(C2=NSC(c3cc(F)cc(C(F)(F)F)c3)(C(F)(F)F)C2)cc1Cl (stereo not shown) [Compound 3-168] | – | over 75% |
| O=C(CC1OCCCO1)NCc1ccc(C2=NSC(c3cc(Cl)c(F)c(Cl)c3)(C(F)(F)F)C2)cc1Cl (stereo not shown) [Compound 3-158] | over 75% | over 75% |
| CC(=O)NCc1ccc(C2=NSC(c3cc(Br)cc(C(F)(F)F)c3)(C(F)(F)F)C2)cc1Br (stereo not shown) [Compound 3-85] | – | over 75% |
| C=CCOCCNC(=O)c1ccc(C2=NSC(c3cc(Cl)cc(Cl)c3)(C(F)(F)F)C2)cc1C (stereo not shown) [Compound 2-53] | over 75% | over 75% |
| O=C(NCC1CCC1)c1ccc(C2=NSC(c3cc(Cl)c(F)c(Cl)c3)(C(F)(F)F)C2)cc1Cl (stereo not shown) [Compound 2-36] | over 75% | over 75% |
| Cc1cc(C2=NSC(c3cc(Cl)c(F)c(Cl)c3)(C(F)(F)F)C2)ccc1C(=O)NCCC(F)=C(F)F (stereo not shown) [Compound 2-43] | over 75% | over 75% |
| CCC(=O)NCc1ccc(C2=NSC(c3cc(Br)cc(C(F)(F)F)c3)(C(F)(F)F)C2)cc1Cl (stereo not shown) [Compound 3-101] | – | over 75% |
| O=C(NCC(F)(F)F)NN=Cc1ccc(C2=NSC(c3cc(Cl)c(F)c(Cl)c3)(C(F)(F)F)C2)cc1Cl (stereo not shown) [Compound 1-14] | – | over 75% |
